In the supplement of paper PMC7858590:
“And” between values parts separate entries of the source, which are not always exact repeats. Equal values may be shown once. ± gives the standard deviation of the averaged measurements. The full ranking holds about 3,800 compounds; the median of “cell shape (eccentricity) Z-score vs DMSO control” is about 1.1, and the lowest 2% start at about -4.7. The list shows a part of the results.

Each compound was assayed on human monocyte-derived macrophages (M0) (assay: cell shape (eccentricity) Z-score vs DMSO control; higher = more elongated, M2-like morphology). Conditions: 20 µM; 24 h; macrophage state: M0 (M-CSF).

SMILES | cell shape (Z-score)
O=c1c(O)cccc2cc(O)c(O)c(O)c12 | -1.08
CC(=O)O[C@@H]1C[C@@]2(C)C(CC[C@@H]2C(C)=O)C2CCC3=CC(=O)CC[C@]3(C)C21 (stereo not given in full) | -1.48
Cn1cnc2c(NCc3ccccc3)nc(NCCO)nc21 | 2.51
CC1(C)CC1C(=O)NC(=CCCCCSCC(N)C(=O)O)C(=O)O (stereo not given) | 8.47
NC(=O)CNCCC(c1ccccc1)c1ccccc1 | 2.9
CCCC1(O)Cc2c(C(C)=O)cc3cccc(O)c3c2O1 (stereo not given) | 2
COc1cc(=O)oc(C(C)C(C)O)c1CO (stereo not given) | 2.74 ± 0.56
COc1cccc2c1C(=O)c1c(O)c3c(c(O)c1C2=O)C[C@@](O)(C(=O)CO)C[C@@H]3O[C@H]1C[C@H](N)[C@H](O)[C@H](C)O1 | 3.64 ± 4.4
CC1Cc2ccc3c(c2C(O)C1)C(=O)c1cccc(O)c1C3O (stereo not given) | 4.24
COc1ccc(C2CC(=O)c3c(O)cc(O[C@@H]4O[C@H](CO[C@@H]5O[C@@H](C)[C@H](O)[C@@H](O)[C@H]5O)[C@@H](O)[C@H](O)[C@H]4O)cc3O2)cc1 (stereo not given in full) | -0.496
CCC1(c2ccccc2)C(=O)NCNC1=O | 2.5
CC(C(=O)O)c1cccc(C(=O)c2ccccc2)c1 (stereo not given) | 0.13
CCC(C)/C=C/C1=CC2=C(Cl)C(=O)C3(C)OC(=O)C(C(=O)C(C)C(C)O)C3C2=CO1 (stereo not given) | -2.83
COc1cc2ncn(-c3cc(OCc4ccccc4C(F)(F)F)c(C(N)=O)s3)c2cc1OC | 15.5
COc1c(C2OCC(OC(C)=O)C(OC(C)=O)C2OC(C)=O)c(O)cc2oc(-c3ccc(OC4OC(CO)C(O)C(O)C4O)cc3)cc(=O)c12 (stereo not given) | -0.896
COc1cccc(CCc2ccccc2OCC[C@@H]2C[C@@H](O)CN2C)c1 | -1.88
Cc1oc(=O)oc1CN1CCN(c2cc3c(cc2F)c(=O)c(C(=O)O)c2n3C(C)S2)CC1 (stereo not given) | -5.14
COc1cc2ccc(=O)oc2c(O[C@@H]2O[C@H](CO)[C@@H](O)[C@H](O)[C@H]2O)c1OC | 1.91
CC(=O)O[C@@H]1CC2C(C)(CC[C@H](O)C2(C)C)C2CC[C@]3(C)C(=CC(=O)O[C@H]3c3ccoc3)C21C (stereo not given in full) | 0.0269
O=C(O)c1cc2cc(Cl)ccc2[nH]1 | 0.516
C=C1[C@H]2CC[C@@]3(C)[C@H](c4ccoc4)OC(=O)C[C@]13O[C@H]1C[C@H](O)C(C)(C)[C@H](CC(=O)OC)[C@]12C | -1.66
Cc1cc(O)c2c(c1)C(=O)c1cccc(O)c1C2=O | 3.93
COc1ccc(-c2coc3cc(O)ccc3c2=O)c(O)c1O | 3.23
CC#CC#C/C=C1\C=CC2(OC=CC2OC(=O)C=C(C)C)O1 (stereo not given) | -2.06
O=C(NC(CO)Cc1ccccc1)c1ccccc1 (stereo not given) | 0.558

SMILES | cell shape (Z-score)
CCCCOc1ccc(C(=O)CCN2CCCCC2)cc1 | 3.04
CCOC(=O)c1cnc2c(cnn2CC)c1NN=C(C)C | -0.739
CO[C@H]1C[C@@H]2CC[C@@H](C)[C@@](O)(O2)C(=O)C(=O)N2CCCC[C@H]2C(=O)O[C@H]([C@H](C)C[C@@H]2CC[C@@H](OC(=O)C(C)(CO)CO)[C@H](OC)C2)CC(=O)[C@H](C)/C=C(\C)[C@@H](O)[C@@H](OC)C(=O)[C@H](C)C[C@H](C)/C=C/C=C/C=C/1C | 2.12 ± 1.8
COc1ccc(CCC(=O)O)c(O)c1 | 0.196
COc1cc2c(N3CCN(C(=O)Nc4ccc(OC(C)C)cc4)CC3)ncnc2cc1OCCCN1CCCCC1 | 0.0806
Clc1ccc(CO/N=C(\Cn2ccnc2)c2ccc(Cl)cc2Cl)c(Cl)c1 | 2
OCc1ccc(-c2ccc(-c3ccc(CO)s3)o2)s1 | -3.3 and -5.19
CCc1cc(C(C)=O)c(O)cc1OCCCCCC(C)(C)c1nnn[nH]1 | 1.49
C[C@@H]1O[C@@H](O[C@H]2[C@H](OC(=O)[C@]34CCC(C)(C)C[C@H]3C3=CCC5[C@@]6(C)C[C@H](O)[C@H](O[C@@H]7O[C@H](CO)[C@@H](O)[C@H](O)[C@H]7O)[C@@](C)(CO)C6[C@H](O)C[C@@]5(C)[C@]3(C)CC4)OC[C@H](O)[C@@H]2O)[C@H](O)[C@H](O)[C@H]1O[C@@H]1OC[C@@H](O)[C@H](O[C@@H]2OC[C@](O)(CO)[C@H]2O)[C@H]1O (stereo not given in full) | -6.49
COC(=O)c1csc(C(=O)c2c[nH]c3ccccc23)n1 | -0.32
C/C=C(\C)C(=O)OC(/C=C/C(O)C(C)O)C1C=CC(=O)O1 (stereo not given) | 0.569 ± 2.1
CCCCNc1cc(C(=O)O)cc(S(N)(=O)=O)c1Oc1ccccc1 | -1.21
CC1CC(=O)C2C(O)(C1)CC(O)C13OC1c1c(O)cccc1C(=O)C23O (stereo not given) | -0.193
C=CCc1cccc(C=NNC(=O)CN2CCN(Cc3ccccc3)CC2)c1O | -1.18
COC(=O)c1cc(Cl)ccc1OC | 1.55
C=C[C@]1(C)C=C2CCC3C(C)(CCC[C@@]3(C)C(=O)O)C2CC1 (stereo not given in full) | 2.71
CC1OC(OCC2OC(OCC3(C)C(O)CCC4(C)C3CCC3(C)C4CCC4C5=CC(C)(C)CCC5(C(=O)O)CCC43C)C(O)C(O)C2O)C(O)C(O)C1O (stereo not given) | -0.65
CCCCCCCCCc1ccc(OCCOCCOCCOCCOCCOCCOCCOCCOCCO)cc1 | 7.4
CC[C@H]1C(=O)CC2C3CCC4C[C@@H](O)[C@]5(O)C[C@]4(CO5)C3CC[C@@]21C (stereo not given in full) | 1.8 ± 0.49
Cc1nn(C)c2nc(NNC(=O)Nc3cc(Cl)nc(Cl)c3)cc(C(C)C)c12 | 10.4
CC1(C)CC[C@]2(C(=O)O[C@@H]3O[C@H](CO)[C@@H](O)[C@H](O)[C@H]3O)CC[C@]3(C)C(=CCC4[C@@]5(C)CC[C@H](O[C@@H]6O[C@H](C(=O)O)[C@@H](O[C@@H]7OC[C@H](O)[C@H](O)[C@H]7O)[C@H](O)[C@H]6O)C(C)(C)C5CC[C@]43C)C2C1 (stereo not given in full) | -0.454
COc1ccc(-c2oc3cc(OC)ccc3c2C(=O)c2ccc(C#N)cc2)cc1 | 0.42
CN[C@@H](C)C(=O)N[C@@H]1CC(=O)N2[C@H](CC[C@H]2C(=O)NC(c2ccccc2)c2ccccc2)CN(C(=O)CC(C)C)C1 | 3.27
COC(=O)C1=CO[C@@H](O[C@@H]2O[C@H](CO)[C@@H](O)[C@H](O)[C@H]2O)[C@@H]2[C@@H](C)[C@@H](O)[C@@H](OC(=O)/C=C/c3ccc(O)c(O)c3)[C@H]12 | 0.934
COc1ccc2[nH]c(S(=O)Cc3ncc(C)c(OC)c3C)nc2c1 (stereo not given) | 0.657

Rewritten with each value named: entries from further up.
COc1ccc(C2CC(=O)c3c(O)cc(O[C@@H]4O[C@H](CO[C@@H]5O[C@@H](C)[C@H](O)[C@@H](O)[C@H]5O)[C@@H](O)[C@H](O)[C@H]4O)cc3O2)cc1 (stereo not given in full)
  cell shape (Z-score): -0.496
CCC1(c2ccccc2)C(=O)NCNC1=O
  cell shape (Z-score): 2.5
CC(C(=O)O)c1cccc(C(=O)c2ccccc2)c1 (stereo not given)
  cell shape (Z-score): 0.13
